Data taken from ChEMBL document CHEMBL3988442, “University of Dundee, Small-Polar-MMV Screening Library” (2021).

The chains behind the UniProt entries cited, without tags or fusion partners.
UniProt P9WFT3, whole entry: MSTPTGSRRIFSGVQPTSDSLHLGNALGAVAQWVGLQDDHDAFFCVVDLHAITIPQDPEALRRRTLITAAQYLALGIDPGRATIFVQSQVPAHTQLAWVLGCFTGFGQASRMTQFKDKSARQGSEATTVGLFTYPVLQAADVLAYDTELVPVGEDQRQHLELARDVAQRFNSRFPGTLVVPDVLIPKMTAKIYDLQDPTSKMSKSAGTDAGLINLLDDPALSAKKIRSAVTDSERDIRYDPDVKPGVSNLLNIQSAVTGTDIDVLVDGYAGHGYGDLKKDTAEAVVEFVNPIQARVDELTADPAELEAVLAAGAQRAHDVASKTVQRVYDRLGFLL
UniProt P9WPC5, whole entry: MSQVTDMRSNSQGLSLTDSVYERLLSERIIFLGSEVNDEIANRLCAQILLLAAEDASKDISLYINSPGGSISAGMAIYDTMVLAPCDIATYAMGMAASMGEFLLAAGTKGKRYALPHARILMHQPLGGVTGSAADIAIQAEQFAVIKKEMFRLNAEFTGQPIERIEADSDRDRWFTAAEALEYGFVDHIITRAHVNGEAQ
UniProt P9WPC3, whole entry partner: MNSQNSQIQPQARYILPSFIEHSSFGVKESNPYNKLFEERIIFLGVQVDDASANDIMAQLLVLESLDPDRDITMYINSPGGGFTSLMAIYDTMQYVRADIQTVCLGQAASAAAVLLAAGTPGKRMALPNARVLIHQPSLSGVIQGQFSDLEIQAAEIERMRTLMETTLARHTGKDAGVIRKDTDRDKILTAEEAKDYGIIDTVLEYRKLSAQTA
UniProt P9WNZ1, whole entry: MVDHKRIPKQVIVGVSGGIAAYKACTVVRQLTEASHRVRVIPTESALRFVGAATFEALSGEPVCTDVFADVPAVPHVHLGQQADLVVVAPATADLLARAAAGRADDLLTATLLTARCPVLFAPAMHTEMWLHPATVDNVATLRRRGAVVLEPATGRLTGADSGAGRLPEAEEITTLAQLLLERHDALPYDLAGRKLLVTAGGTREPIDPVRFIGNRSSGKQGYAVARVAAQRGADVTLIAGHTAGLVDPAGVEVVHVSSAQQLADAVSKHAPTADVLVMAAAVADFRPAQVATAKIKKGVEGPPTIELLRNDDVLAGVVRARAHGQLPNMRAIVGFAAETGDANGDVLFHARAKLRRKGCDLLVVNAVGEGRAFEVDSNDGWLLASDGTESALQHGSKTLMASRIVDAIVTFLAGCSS
UniProt I6X8D2, whole entry: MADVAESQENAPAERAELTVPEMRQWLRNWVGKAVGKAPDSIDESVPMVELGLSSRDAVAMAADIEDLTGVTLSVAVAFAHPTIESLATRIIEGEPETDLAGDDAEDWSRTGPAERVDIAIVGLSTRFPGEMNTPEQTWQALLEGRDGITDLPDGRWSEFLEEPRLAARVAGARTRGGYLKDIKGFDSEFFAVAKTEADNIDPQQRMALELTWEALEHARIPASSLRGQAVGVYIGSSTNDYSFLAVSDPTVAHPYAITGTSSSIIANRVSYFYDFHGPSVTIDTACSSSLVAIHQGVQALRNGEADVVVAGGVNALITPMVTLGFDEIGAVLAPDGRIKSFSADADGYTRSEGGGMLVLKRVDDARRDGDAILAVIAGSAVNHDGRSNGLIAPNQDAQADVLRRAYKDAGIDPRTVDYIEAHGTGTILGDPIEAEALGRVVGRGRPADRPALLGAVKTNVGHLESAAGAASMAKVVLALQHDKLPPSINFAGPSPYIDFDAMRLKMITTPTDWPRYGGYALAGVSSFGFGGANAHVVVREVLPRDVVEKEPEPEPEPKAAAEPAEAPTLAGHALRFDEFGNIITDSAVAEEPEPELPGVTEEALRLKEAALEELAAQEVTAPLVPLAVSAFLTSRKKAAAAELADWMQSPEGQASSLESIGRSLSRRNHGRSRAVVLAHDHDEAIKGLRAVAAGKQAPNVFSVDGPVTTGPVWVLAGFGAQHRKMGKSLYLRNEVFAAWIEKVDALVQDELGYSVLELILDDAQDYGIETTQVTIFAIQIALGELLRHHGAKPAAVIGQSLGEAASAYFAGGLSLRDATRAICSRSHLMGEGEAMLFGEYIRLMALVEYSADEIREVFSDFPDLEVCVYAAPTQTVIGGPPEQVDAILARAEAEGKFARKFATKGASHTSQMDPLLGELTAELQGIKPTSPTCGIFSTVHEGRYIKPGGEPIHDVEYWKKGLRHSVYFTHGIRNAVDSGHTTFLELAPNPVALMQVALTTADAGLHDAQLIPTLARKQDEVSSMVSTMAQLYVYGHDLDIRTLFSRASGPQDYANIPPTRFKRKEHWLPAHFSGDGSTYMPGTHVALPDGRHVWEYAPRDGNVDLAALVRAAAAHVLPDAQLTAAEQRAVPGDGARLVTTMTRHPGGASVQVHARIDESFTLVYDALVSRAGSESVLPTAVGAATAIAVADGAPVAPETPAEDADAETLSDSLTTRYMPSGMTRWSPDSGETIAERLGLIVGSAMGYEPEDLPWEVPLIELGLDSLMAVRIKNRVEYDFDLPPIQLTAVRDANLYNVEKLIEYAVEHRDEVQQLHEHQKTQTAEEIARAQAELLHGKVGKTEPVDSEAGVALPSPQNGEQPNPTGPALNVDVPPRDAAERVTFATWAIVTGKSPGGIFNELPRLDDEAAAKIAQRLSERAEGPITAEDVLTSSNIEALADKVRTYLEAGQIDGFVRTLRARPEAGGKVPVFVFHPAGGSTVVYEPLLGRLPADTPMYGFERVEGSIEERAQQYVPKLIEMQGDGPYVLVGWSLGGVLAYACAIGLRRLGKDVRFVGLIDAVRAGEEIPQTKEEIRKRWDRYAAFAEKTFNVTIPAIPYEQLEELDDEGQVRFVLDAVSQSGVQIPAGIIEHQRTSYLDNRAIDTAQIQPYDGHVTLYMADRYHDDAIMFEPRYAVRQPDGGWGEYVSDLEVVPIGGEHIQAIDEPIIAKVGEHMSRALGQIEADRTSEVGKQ

Each number is a percent effect as filed. The record does not define 0% and 100%; most values in the screen are far below 50% and negative numbers occur (in some assays of this library far below -100). This is an unselected part of the compounds tested. Two or more numbers in one place are separate tests of the same structure; such repeats can differ widely.

MtTrpRS: 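Enzyme assay of tryptophanyl-tRNA synthetase; the read-out is not stated. Target: Tryptophan-tRNA ligase, Mycobacterium tuberculosis (UniProt P9WFT3). Compounds at 10 µM. Direction is not recorded; retested compounds ran higher, which suggests that high means inhibition. Size under these conditions: about 65,000 compounds, about 64 of them at 50% or above in at least one test.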
Toxoplasma: 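Assay of Toxoplasma gondii numbers, read through their beta-galactosidase reporter with a colour substrate. Tested at 10 µM. The record gives no direction; the compounds picked for IC50 retests had high values, so higher reads as fewer parasites. Size under these conditions: about 67,000 compounds, about 260 of them at 50% or above in at least one test.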
ClpP1P2: 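ClpP1P2, Mycobacterium tuberculosis (UniProt P9WPC5 and UniProt P9WPC3). Protease assay of ClpP1P2, read by the AMC dye that it sets free. Tested at 50 µM. Higher reads as stronger inhibition, judged from the few compounds that gave an IC50. Most other retested compounds had strongly negative values. Size under these conditions: about 69,000 compounds, about 10 of them at 50% or above in at least one test.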
CoaBC: 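Enzyme assay of CoaBC with a phosphate dye (Biomol Green) read at 650 nm. Target: Coenzyme A biosynthesis protein CoaBC, Mycobacterium tuberculosis (UniProt P9WNZ1). Concentration: 30 µM. Higher reads as stronger inhibition, judged from the few compounds that gave an IC50. Most strong results did not repeat in a second test. About 67,000 compounds were tested under these conditions; 0.06% (about 40) showed 50% or more at least once.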
Pks13 thioesterase: 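Enzyme assay of the thioesterase domain of polyketide synthase 13; the read-out is not stated. Target: Polyketide synthase Pks13, Mycobacterium tuberculosis (UniProt I6X8D2). Compounds at 30 µM. The record gives no direction; the compounds picked for IC50 retests had high values, so higher reads as stronger inhibition. Of about 67,000 compounds tested this way, about 300 (0.46%) reached 50% or more in at least one test.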

* CN(Cc1ccc(-n2ccnc2)cc1)CC1CCCN1c1cccnn1 (stereo not given) : MtTrpRS: 6.771%; Toxoplasma: 0.1652%; ClpP1P2: -46.08%; CoaBC: 3.133%; Pks13 thioesterase: -5.884%
* CCc1cnc(COc2ccc(OC3CCCCNC3=O)cc2)o1 (stereo not given) : MtTrpRS: -0.9332%; Toxoplasma: 3.289%; ClpP1P2: -3.53%; CoaBC: -1.965%; Pks13 thioesterase: -11.38%
* O=C(O)C(F)(F)F.[H][C@@]12CCN(Cc3ccccc3C)C[C@]1([H])O[C@@H](C(=O)N(C)C)C2 : Toxoplasma: 3.27%
* O=C(CN1CCCC(Cn2cncn2)C1)Nc1cccnc1 (stereo not given) : MtTrpRS: 0.1273%; Toxoplasma: -15.19%; ClpP1P2: -1.033%; CoaBC: 1.786%; Pks13 thioesterase: -1.084%
* Cn1cccc(NC(=O)COc2ccc(Cl)cc2)c1=O : MtTrpRS: -7.149%; Toxoplasma: 5.114%; ClpP1P2: 1.727%; CoaBC: -3.089%; Pks13 thioesterase: -24.01%
* Cc1cccc(S(=O)(=O)N2CCCc3c(c(=O)n(C)n3C)C2)c1 : MtTrpRS: -5.5%; Toxoplasma: -3.725%; ClpP1P2: -7.86%; CoaBC: 7.317%; Pks13 thioesterase: -25.03%
* CCCOc1cccc(NC(=O)NC2CCc3nc(C)nn3C2)c1 (stereo not given) : MtTrpRS: -3.056%; Toxoplasma: 4.867%; ClpP1P2: -2.878%; CoaBC: 0%; Pks13 thioesterase: 3.101%
* CCc1ocnc1C(=O)N1CCCC1c1noc(C)n1 (stereo not given) : MtTrpRS: -2.704%; Toxoplasma: 5.655%; ClpP1P2: -21.95%; CoaBC: 2.558%; Pks13 thioesterase: -12.22%
* O=C(CCCSc1ccc(NC(=O)C2CC2)nn1)NCC1CCCO1 (stereo not given) : MtTrpRS: -2.101%; Toxoplasma: -22.57%; ClpP1P2: 1.118%; CoaBC: 4.087%; Pks13 thioesterase: -41.19%
* CCn1cc2c(n1)CN(Cc1ccc(F)cc1)CC2COCC1CC1 (stereo not given) : MtTrpRS: -7.984%; ClpP1P2: -6.764%; CoaBC: 6.599%; Pks13 thioesterase: 2.831%
* Cc1cccc(NC2CCN(C(=O)Nc3ccccn3)CC2)n1 : MtTrpRS: -3.488%; Toxoplasma: 16.25%; ClpP1P2: -4.939%; CoaBC: 6.701% and 21.93%; Pks13 thioesterase: 3.315%
* CSc1ccc(CN(CCO)C(=O)CCNC(C)=O)cc1 : MtTrpRS: -5.167%; Toxoplasma: -28.73%; ClpP1P2: -3.614%; CoaBC: -0.1266%; Pks13 thioesterase: -9.893%
* O=C(O)C(F)(F)F.O=C(O)C(F)(F)F.O=C(O)C(F)(F)F.O=C(O)C(F)(F)F.[H][C@@]12CN(Cc3ccncc3)C[C@]1([H])OCCN2CCN1CCCC1 : Toxoplasma: -11.17%
* Cc1nc(C)n(CC2CCCN2CC(=O)NCCC2=CCCCC2)n1 (stereo not given) : MtTrpRS: 2.855%; Toxoplasma: 2.77%; ClpP1P2: -4.443%; CoaBC: 2.911%; Pks13 thioesterase: 19.35%
* CC(C)(C)C(O)CN1CCN(Cc2ccc(C#N)cc2)CC1 (stereo not given) : MtTrpRS: -5.722%; Toxoplasma: -5.128%; ClpP1P2: 1.626%; CoaBC: -1.446%; Pks13 thioesterase: -7.765%
* CS(=O)(=O)Nc1ccc(-n2c(CCCO)nc3ccccc32)cn1 : MtTrpRS: 4.094%; Toxoplasma: 2.372%; ClpP1P2: -25.8%; CoaBC: 0.7673%; Pks13 thioesterase: -23.18%
* c1cn2c(n1)CNCC(COCC1CC1)C2 (stereo not given) : MtTrpRS: -1.187%; Toxoplasma: -2.427%; ClpP1P2: -9.534%; Pks13 thioesterase: -29.15%
* Cc1noc(C)c1CN1CCC2(CC1)CC(Oc1cccnc1)CO2 (stereo not given) : MtTrpRS: 4.854%; ClpP1P2: 8.054%; Pks13 thioesterase: -17.88%
* CS(=O)(=O)NCC1CCCCN1C(=O)Nc1cccnc1N1CCCC1 (stereo not given) : MtTrpRS: 23.2%; Toxoplasma: -0.2514%; ClpP1P2: -5.18%; CoaBC: 6.343%; Pks13 thioesterase: -7.884%
* Cc1ccccc1CN(CCN(C)C)Cc1ccccc1C(=O)O : MtTrpRS: -0.6441%; Toxoplasma: -11.29%; ClpP1P2: 0.8965%; CoaBC: 1.515%
* O=C(O)C(F)(F)F.O=C(O)C(F)(F)F.O=C(O)C(F)(F)F.[H][C@]12C[C@@H](CN3CCCC3)N(C)[C@@]1([H])CCN(Cc1ccoc1)C2 : Toxoplasma: -33.35%

2 of the entries, repeated:

{"compound": "CC(C)(C)C(O)CN1CCN(Cc2ccc(C#N)cc2)CC1", "stereo": "stereo not given", "MtTrpRS": -5.722, "Toxoplasma": -5.128, "ClpP1P2": 1.626, "CoaBC": -1.446, "Pks13 thioesterase": -7.765}
{"compound": "O=C(CN1CCCC(Cn2cncn2)C1)Nc1cccnc1", "stereo": "stereo not given", "MtTrpRS": 0.1273, "Toxoplasma": -15.19, "ClpP1P2": -1.033, "CoaBC": 1.786, "Pks13 thioesterase": -1.084}